Screen size: about 53,000 sequences; about 3,700 (7%) were called active.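 The calls were made as follows: active = gene knockdowns whose robust z-score for IL-1 alpha signal is at least 2 or at most -2, so actives lie on both sides; inactive = the rest.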 The list shows a part of the results.
Experiment: Components of the Cytosolic LPS Sensing Pathway: Gene Identification via Genome-wide siRNA Screen;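 also: robust z of the log signal after scaling to non-targeting control siRNA wells of the plate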
Details: RAW264.7 macrophages, IL-1a HTRF, actives lie on both sides, screened at 100 nM (by protocol), cells primed 5 h with Pam3CSK4 first
Method in brief: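 RAW264.7 mouse macrophages reverse-transfected with single siRNAs (100 nM final) for 48h, primed with Pam3CSK4 for 5 hours, then transfected with LipidA for 24 hour. Supernatant IL-1a read by HTRF; values normalized to negative-control median, log-transformed robust z-scores.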

Sequence | z-score
GACCUGAAGAAGUCAGAUGTT against Sycn | inactive: -1.15
GCCAAUCAAGCACUCGCUCTT against Fam71e2 | inactive: 1.18
GGGUCUGGUGAAGAACCUUTT against Akr1e1 | inactive: 0.168
GGACAAGAGGACUCAGAAATT against Camk1 | inactive: -0.772
GGUGUCUGAUGAUGAAUAUTT against Cnnm3 | inactive: 0.322
CCUUGGAAAAGCUUGAUGUTT against Pip5k1a | inactive: -1.52
GGAGAGCAAAUUAAGUUCATT against Erc1 | inactive: 1.01
GGCUAAGUUCUAUAGUAAATT against Crkl | inactive: -0.339
GCGUGAAAUGGAUGAUCAATT against Pacc1 | inactive: 0.695
CGAAAAUCAAGCGGAAUUUTT against Zmiz1 | active: 2.49
GGACCAGCUCAUCACCAAGTT against Spata24 | inactive: -1.42
GGGUCAAAGAGAAAAAAGUTT against Hoxa13 | inactive: -1.2
GGGAUAUUGAUAGUUUUUCTT against Haus2 | inactive: 0.743
GGCUUUCUCCUACAUAUGCTT against Numbl | inactive: -0.976
CGAGAAGGGUCAUAUGAGCTT against Rbp4 | inactive: -1.84
GGACAUUUUCAAACAAGGCTT against Mthfs | inactive: -1.07
GCUCAAUCUAGGGCGAAGATT against Cd247 | inactive: 0.12
GCCAACCGUUUUCACAGACTT against Aldh1l1 | inactive: -0.389
CGGUUCUGCAUAAAAGAACTT against Slc38a9 | inactive: -0.836
CGCUCAUGAACUUGUACUUTT against Gpr137b | inactive: -1.27
GGAUCUUAGUAAUAUUGGUTT against Ash2l | inactive: -0.72
CCAGGUCUUAGUAAACAUUTT against Cbln2 | inactive: 0.609
CCGUCCAAAAGGACUUAUCTT against Nap1l2 | inactive: 1.62

Sequence | z-score
CGUGAACAGCUUUAAGGUGTT against Usp27x | inactive: 1.34
GGAAAACCUUUGUCAAAAATT against P2ry13 | inactive: 0.169
CCAGGAUGAAAAGUCGUUUTT against Slco2a1 | inactive: -0.21
GGAAGAGGAUAGGCAGGAATT against Gfer | active: 2.03
GGAGGAGUGUUGAACUAAATT against Ttc14 | inactive: 1.05
CCUGUUGAUUAAUUGAAGCTT against E2f2 | inactive: 0.184
GGGAACCUAUUGAUAAUCUTT against Rbm39 | inactive: -0.578
GGAAGACUUUGAAGAAAAATT against Olfr983 | inactive: -1.43
GCUAAGAGGUUGUAGUUUUTT against Tbpl1 | inactive: -0.961
GCUUCGGUCAAAAGUGAGUTT against Glipr1 | inactive: 0.411
CCAGGCAGUAUAAUCAUGUTT against Col4a5 | inactive: -0.236
GGCUCAAUGAGGGAUAAAATT against Qk | inactive: 0.123
GGGACAGAUGCUUUUGUACTT against Samt3 | inactive: -0.127
GAAAUAGAGAUGCCUCUCUTT against Olfr1161 | active: 2.52
GGCCUUGUAACCAACUCCUTT against Sh3bgrl3 | inactive: -0.0613
GCUACUGCCGGAAUUUGGUTT against Tiam1 | inactive: 0.497
GGACAAGUUAACCAUUUUGTT against Asz1 | inactive: -0.413
GGGCCACAUGUGUUCACUATT against Shisa5 | active: -2.35
GCUGUACGCCAAUGUGUACTT against Champ1 | inactive: -0.54
GCUCCAAGCUUCUCUAUAGTT against Vmn1r206 | inactive: -1.89
GGCAAUGUAGUGAACAAACTT against Gtpbp1 | inactive: -0.288
CGGGCUGAAGCUCAUUUCUTT against Gpd1 | inactive: 1.32
GCUCUGAACUCAAUAAUAATT against Atg7 | inactive: -0.875

Exported as tab-separated lines: part of the list above.
Sequence	z-score
GAAAUAGAGAUGCCUCUCUTT against Olfr1161	active: 2.52
GGCCUUGUAACCAACUCCUTT against Sh3bgrl3	inactive: -0.0613
GCUACUGCCGGAAUUUGGUTT against Tiam1	inactive: 0.497

Further records

Sequence | z-score
GGGAAGAAAGGAUGGGAAATT against Fev | inactive: 0.355
GGAACCUCACAUCCAGUGATT against Apol10b | inactive: 1.53
GGAGAAGCCAAAAGAAUGCTT against Xrn2 | inactive: -0.76
GGAGUGAGCAUUUACUUUGTT against Arel1 | inactive: 0.368
GGAUGAACCUACACCCUAATT against Dhrs13 | inactive: -0.166
GGCAAAAAAAAAAUGCCCATT against Sox2 | inactive: -0.742
GGUCCAAAACCAUCAGAAGTT against Plekha5 | inactive: -0.668
GGUCAACAGUUACAUCGAGTT against Vps33a | inactive: 0.273
CCUGAACUAUAGAUGGAUUTT against Manba | active: 3.37
GGAUUGCUCUAGCCAUUGUTT against Olfr691 | inactive: 0.57
GCAUAAUGAAGUUCCAAAUTT against Casd1 | inactive: 1.34
GGGUCAUCGGAACAGAACUTT against Sult3a1 | active: -2.26
GAGCAGAACCGCAUCAUAUTT against Ucn | inactive: -0.22
GGCAAGAUGCACAAGACUUTT against Cacna1s | active: 2.6
GGAAAGACUUACCAGAAUATT against Smarca2 | inactive: 1.16
GGGUCACUGAAGGUACUCUTT against Cd300c2 | inactive: -1.41
CCUGAGGACCACUACUUUUTT against Actr3b | inactive: 1.44
CGAGAAAAACGAUUUACUGTT against Orai2 | inactive: -0.527
CGGAUUGAGUAAUUAUUUCTT against Morc4 | inactive: 0.279
CCGUGGAUAACAUGAGCAUTT against Agpat2 | inactive: -0.491
GCACCACAAUGAAACGUGCTT against Cacng1 | inactive: -0.0521
GGACCUACCAGAAUCUGGUTT against Phip | inactive: -1.32
GGAACUUGGUAUUUAGAUCTT against Rhot2 | inactive: 0.295

— PubChem BioAssay AID1508600 (Functional Genomics Laboratory (NCATS/FGL), 2020)
